# Experimental data taken from PubChem BioAssay AID504834 (National Center for Advancing Translational Sciences (NCATS), 2011).
# In all, about 320,000 compounds went through this assay and about 22,000 (6.9%) were called active. Inconclusive results, whose numbers are uncertain, are shown with a selection of clear calls. Calls come from the whole dose curve; as a rule, active = well fitted inhibition curve with a large enough effect; inconclusive = small, poorly fitted or top-dose-only effect, or another doubt; inactive = no such curve, though single readings can be large or run the other way. Potencies of inconclusive entries are doubtful fits and often do not repeat.
# Experiment: Primary qHTS for delayed death inhibitors of the malarial parasite plastid, 96 hour incubation
# Conditions: P. falciparum luciferase reporter growth; series mostly up to 28.7 µM
# How it was run: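 Cell-based qHTS: luciferase-tagged P. falciparum in erythrocytes (2% hematocrit, 0.05% parasitemia final) incubated with compounds for 96 hours, 37 C, 5% CO2; luciferase detection reagent then added and luminescence measured.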
# Potency is the fitted concentration of half-maximal effect.
row,SMILES,Potency
1,CCOc1ccc(S(=O)(=O)c2c[nH]c3ccccc3c2=O)cc1,inactive
2,COc1ccc(-c2cc3ncnc(Cl)c3s2)cc1,inactive
3,COc1ccc(-n2cnnc2SCC(=O)Nc2cc(C(C)(C)C)nn2-c2ccccc2)cc1,"inconclusive: 18.5 µM [inhibitor, single point]"
4,CC(C)c1ccc(NC(=O)Cn2cccc2C2=NC(c3ccccc3)CO2)cc1 (centres undefined),"inconclusive: 18.5 µM [inhibitor, single point]"
5,COC(=O)c1cccc(Nc2c3c(nc4ccccc24)CCC3)c1,inactive
6,CCn1ccnc1CN(C)Cc1c(C(=O)N2CCCCCCC2)nc2ccc(Cl)cn12,"inconclusive: 8.28 µM [inhibitor, partial curve, poor fit]"
7,COc1ccc(C)cc1S(=O)(=O)N(CC(N)=O)Cc1ccccc1,inactive
8,CN1N=C2c3ccccc3CCC2C1c1ccc(Cl)cc1 (centres undefined),active: 1.47 µM
9,Cc1nn(C(C)C(=O)O)c(=O)c2ccccc12 (centres undefined),active: 9.28 µM
10,CCOC(=O)c1csc(NC(=O)c2ccccc2)n1,inactive
11,Cc1cccc(N(Cc2ccccc2F)S(C)(=O)=O)c1,active: 9.28 µM
12,COc1ccc(-c2noc(CSc3nnc(Cc4ccccc4)n3-c3ccc(Cl)cc3)n2)cc1,"inconclusive: 11.7 µM [inhibitor, single point]"
13,CCCCn1c(N)c(N(CCOC)C(=O)c2cccc(OCc3ccccc3)c2)c(=O)[nH]c1=O,inactive
14,CC(=O)Nc1ccccc1C(=O)N1CC(C)OC(C)C1 (centres undefined),inactive
15,CCOc1ccc(Nc2nc3c(c(=O)[nH]2)CCC3)cc1,"inconclusive: 11.7 µM [inhibitor, single point]"
16,CCOc1ccc(-c2ccc(SCC)nn2)cc1,"inconclusive: 16.5 µM [inhibitor, single point]"
17,CCN(C(=O)COC(=O)c1cc(C)n(-c2ccc(F)cc2)c1C)C1CCS(=O)(=O)C1 (centres undefined),inactive
18,COc1ccc(C(CNC(=O)c2ccc(S(=O)(=O)Nc3ccccc3F)cc2)N(C)C)cc1 (centres undefined),inactive
19,CCn1c(N2CCN(CC(=O)c3c(C)n(C)c4ccc(OC)cc34)CC2)nc2c1c(=O)[nH]c(=O)n2C,active: 10.4 µM
20,C/C(CC(=O)Nc1cc(C)ccn1)=N\NC(=O)c1cccc(C)c1,"inconclusive: 11.7 µM [inhibitor, single point]"
21,COc1ccc([C@@H]2CC=C(C(=O)O)[C@H](c3ccccc3)N2S(=O)(=O)c2ccccc2C)cc1,"inconclusive: 10.4 µM [inhibitor, single point]"
22,Cc1ccc(C(OCC(O)CN2CCCCC2CO)c2ccccc2)cc1 (centres undefined),active: 1.65 µM
23,O=c1c2cc(NC(=S)N3CCCC3)ccc2nc2n1CCCCC2,"inconclusive: 13.1 µM [inhibitor, single point]"
24,C=CCOc1ccc(/C=N/NC(=O)CN2CCOCC2)cc1OCC,"inconclusive: 18.5 µM [inhibitor, single point]"
25,CCCSc1nc(N)c(C#N)c(-c2ccc(C)cc2)c1C#N,"inconclusive: 0.0047 µM [inhibitor, full curve]"

row,SMILES,Potency
1,Cc1ccccc1NS(=O)(=O)c1cccc(C(=O)Nc2cccc(C(=O)O)c2)c1,inactive
2,CCN(Cc1cc(=O)oc2cc(C)ccc12)c1ccccc1,"inconclusive: 3.29 µM [inhibitor, single point]"
3,CC(=O)Nc1ccc(S(=O)(=O)NCc2ccc(C(=O)NCc3ccc(Cl)cc3)cc2)cc1,"inconclusive: 2.08 µM [inhibitor, partial curve]"
4,O=C(O)c1cc(-c2ccco2)nc2ccc(Br)cc12,"inconclusive: 0.0233 µM [inhibitor, full curve, poor fit]"
5,COCCN(CC1CCCN(C2Cc3ccccc3C2)C1)C(=O)CSC (centres undefined),"inconclusive: 18.5 µM [inhibitor, single point]"
6,CC12CCC(C/C1=N/OC(=O)c1cccc([N+](=O)[O-])c1)C2(C)C (centres undefined),inactive
7,Cc1ccc(N(Cc2ccccc2)C(=O)c2ccc(Cl)c(S(=O)(=O)N3CCOCC3)c2)cc1,active: 9.28 µM
8,O=C(NCCC(=O)N1CCN(S(=O)(=O)c2ccccc2Cl)CC1)Nc1ccccc1,"inconclusive: 9.28 µM [inhibitor, partial curve]"
9,C#CC[N+](CC)(CC)CC#Cc1ccccc1,"inconclusive: 1.85 µM [inhibitor, partial curve, poor fit]"
10,O=C(NCC(=O)N(c1ccc(F)cc1)C(C(=O)NC1CCCCC1)c1cccnc1)c1ccco1 (centres undefined),inactive
11,Cn1cc(/C=C(\C#N)C(=O)Nc2ncc(Cc3ccc(Cl)cc3)s2)c2ccccc21,"inconclusive: 18.5 µM [inhibitor, single point]"
12,CC1=CN2C(=N)/C(=C/c3ccc(Sc4ccc(C)cc4)o3)C(=O)N=C2S1,"inconclusive: 13.1 µM [inhibitor, single point]"
13,COc1cc(C(=O)O)cc(NC(=O)c2ccco2)c1OC,inactive
14,CCCn1nnc(NC(=O)c2cccnc2Cl)n1,"inconclusive: 11.7 µM [inhibitor, single point]"
15,CCN(C(=O)c1ccc2c(=O)n3c(nc2c1)CCCCC3)c1cc(OC)ccc1OC,"inconclusive: 13.1 µM [inhibitor, single point]"
16,Cc1nc2c(cc1N)nc(C)n2Cc1ccccc1,active: 2.62 µM
17,COc1ccc(C)cc1NC(=O)Nc1cnccn1,"inconclusive: 18.5 µM [inhibitor, single point]"
18,Cc1ccc(C)c(N(C(=O)c2snc(C(N)=O)c2N)C(C(=O)NCC2CCCO2)c2ccc(C)o2)c1 (centres undefined),inactive
19,Oc1ccc(Cl)cc1C=NCCc1ccccc1,inactive
20,CCOC(=O)N1CCN(C(=O)c2cc(COc3c(F)cccc3F)on2)CC1,"inconclusive: 14.7 µM [inhibitor, partial curve, poor fit]"
21,O=C(NC1CC2CCCC(C1)N2Cc1cccs1)N1CCOCC1 (centres undefined),"inconclusive: 11.7 µM [inhibitor, partial curve]"
22,CCCOc1ccc2oc(=O)c3c(c2c1)CCCN3C(=O)CN(C)Cc1ccccc1,"inconclusive: 3.29 µM [inhibitor, single point]"
23,O=C(CN1C(=O)C2CCCCC2C1=O)OCC(=O)c1ccc(F)cc1 (centres undefined),inactive
24,COc1ccc(S(=O)(=O)N2CCN(C(=O)c3cccs3)CC2)cc1,"inconclusive: 10.4 µM [inhibitor, single point]"
25,O=C1OC(Nc2ccc(Br)cc2F)c2ccccc21 (centres undefined),"inconclusive: 13.1 µM [inhibitor, partial curve, poor fit]"

# Three compounds out of the list, ordered by heavy-atom count, descending.
row,SMILES,Potency
18,Cc1ccc(C)c(N(C(=O)c2snc(C(N)=O)c2N)C(C(=O)NCC2CCCO2)c2ccc(C)o2)c1 (centres undefined),inactive
10,O=C(NCC(=O)N(c1ccc(F)cc1)C(C(=O)NC1CCCCC1)c1cccnc1)c1ccco1 (centres undefined),inactive
23,O=C(CN1C(=O)C2CCCCC2C1=O)OCC(=O)c1ccc(F)cc1 (centres undefined),inactive

# Continued:

row,SMILES,Potency
1,CCCCOC(=O)c1[nH]c2c(c1C)C(=O)CC(c1cc(OC)c(OC)c(OC)c1)C2 (centres undefined),inactive
2,CC12CCC(C(=O)N(CCCCN3CCN(c4ccccn4)CC3)C1=O)C2(C)C (centres undefined),active: 9.28 µM
3,CC(=O)c1c(C)[nH]c(C(=O)Nc2ccc(F)cc2F)c1C,inactive
4,O=C(NCCCO)c1cc([N+](=O)[O-])cc2c1C=Cc1ccccc1O2,"inconclusive: 18.5 µM [inhibitor, single point]"
5,COC(=O)C1(Cc2ccc(O)cc2)OC(=O)C(O)=C1c1ccc(O)cc1 (centres undefined),inactive
6,CC(=O)Nc1ccc(S(=O)(=O)NCC2CCC(C(=O)NC(C)c3ccc4c(c3)OCCO4)CC2)cc1 (centres undefined),"inconclusive: 11.7 µM [inhibitor, single point]"
7,CCOC(=O)c1c(NC(=O)c2cnn3c2NC(c2cccc(OC)c2)CC3C(F)(F)F)sc2c1CCCC2 (centres undefined),inactive
8,CCCCN(C)C1CCN(C(=S)Nc2cccc(SC)c2)CC1,"inconclusive: 13.1 µM [inhibitor, single point]"
9,CNC(=S)NNC(=O)c1sccc1OCc1ccccc1,"inconclusive: 1.31 µM [inhibitor, full curve, poor fit]"
10,N#Cc1ccc(S(=O)(=O)NCC(=O)OCC(=O)NCCc2ccccc2)cc1,inactive
11,COc1cc2c(-c3ccc(O)cc3)nc3c(c(C)nn3-c3ccccc3)c2cc1OC,inactive
12,Cc1ccc(S(=O)(=O)n2nc(OC(=O)c3ccccc3C)cc2N)cc1,"inconclusive: 13.1 µM [inhibitor, partial curve]"
13,CC(C)Cn1c(SCC(=O)N2CCN(C(=O)c3ccco3)CC2)nc2ccccc2c1=O,"inconclusive: 11.7 µM [inhibitor, partial curve, poor fit]"
14,COCC(=O)Oc1c(S(=O)(=O)c2ccc(C)cc2)c(C)nn1-c1ccccc1,"inconclusive: 5.22 µM [inhibitor, partial curve, poor fit]"
15,COc1ccc2[nH]cc(C(O)CN3CCC(C(N)=O)CC3)c2c1 (centres undefined),inactive
16,O=C(/C=C/c1ccccc1)NCCc1cnc[nH]1,"inconclusive: 0.415 µM [inhibitor, full curve]"
17,Cc1cc(C)cc(OCC(=O)Nc2ccc(-n3cnnn3)cc2)c1,inactive
18,COc1ccc2cc3c(N)c(C(=O)NCc4ccco4)sc3nc2c1,"inconclusive: 0.0029 µM [inhibitor, full curve, poor fit]"
19,COc1ccc(NC(=O)NCCCN2CCCC2=O)cc1,"inconclusive: 10.4 µM [inhibitor, single point]"
20,CCc1ccc(N2CN(CCc3ccccc3)CNC2=S)cc1,"inconclusive: 16.5 µM [inhibitor, single point]"
21,O=C(COC(=O)C12CC3CC(CC(Br)(C3)C1)C2)Nc1cccnc1Cl,inactive
22,COc1ccc(NC(=O)CN(C)C(=O)c2ccc3c(c2)NC(=O)CS3)cc1,inactive
23,CC(C)(C)OC(=O)CC1(C#N)c2ccccc2C(Br)=CN1C(=O)c1ccccc1 (centres undefined),active: 11.7 µM
24,COc1cc2c(cc1OC)C(COc1ccccc1OC)N(C(=O)C(C)(C)C)CC2 (centres undefined),inactive
